Results as given in publication PMC10186606.
No constants are given. Whether binding was seen depends on the method and setting. Binding seen in cells or lysates may run through a third protein. Some binding calls cover weakened binding; strength is not graded here.

Chains of the proteins cited; added tags and fusions are not shown.
UniProt Q96EB6: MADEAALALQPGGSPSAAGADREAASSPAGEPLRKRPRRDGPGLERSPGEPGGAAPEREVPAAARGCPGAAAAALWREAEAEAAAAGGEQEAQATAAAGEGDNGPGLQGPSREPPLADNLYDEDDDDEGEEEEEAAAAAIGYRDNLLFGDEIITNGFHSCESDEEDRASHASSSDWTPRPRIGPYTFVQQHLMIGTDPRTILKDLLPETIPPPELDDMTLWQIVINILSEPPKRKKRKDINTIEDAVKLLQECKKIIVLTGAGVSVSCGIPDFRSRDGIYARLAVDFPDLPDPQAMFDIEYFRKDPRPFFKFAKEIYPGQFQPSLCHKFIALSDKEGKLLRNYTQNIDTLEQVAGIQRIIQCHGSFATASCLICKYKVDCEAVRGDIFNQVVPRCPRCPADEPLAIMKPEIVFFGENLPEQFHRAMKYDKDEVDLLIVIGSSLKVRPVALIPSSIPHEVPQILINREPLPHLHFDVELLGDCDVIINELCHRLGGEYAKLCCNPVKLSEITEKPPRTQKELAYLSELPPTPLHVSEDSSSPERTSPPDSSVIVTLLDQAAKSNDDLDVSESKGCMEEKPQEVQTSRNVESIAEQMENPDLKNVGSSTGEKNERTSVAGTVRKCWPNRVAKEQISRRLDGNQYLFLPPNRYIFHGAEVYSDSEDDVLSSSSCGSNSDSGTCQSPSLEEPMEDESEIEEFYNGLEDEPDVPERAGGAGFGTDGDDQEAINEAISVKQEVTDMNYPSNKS
UniProt Q00987: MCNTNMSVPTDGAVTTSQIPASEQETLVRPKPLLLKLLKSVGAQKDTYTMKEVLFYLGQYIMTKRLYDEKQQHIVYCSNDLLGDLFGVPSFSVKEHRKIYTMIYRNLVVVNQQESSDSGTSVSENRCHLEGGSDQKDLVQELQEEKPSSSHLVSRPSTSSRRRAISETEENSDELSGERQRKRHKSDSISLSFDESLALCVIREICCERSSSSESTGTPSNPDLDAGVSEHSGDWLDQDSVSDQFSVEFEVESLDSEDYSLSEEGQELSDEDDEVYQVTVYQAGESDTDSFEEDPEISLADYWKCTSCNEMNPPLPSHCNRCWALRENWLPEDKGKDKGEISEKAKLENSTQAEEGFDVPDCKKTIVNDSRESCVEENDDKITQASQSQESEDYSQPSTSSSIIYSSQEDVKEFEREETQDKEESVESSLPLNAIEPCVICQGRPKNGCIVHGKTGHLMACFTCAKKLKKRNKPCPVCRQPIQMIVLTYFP

Columns and labels:
[1] = target: Sirt1 (sirtuin 1 protein) (UniProt Q96EB6); test: co-IP; HEK-293T cells, shScramble or shNr4a1, under H2O2 stimulation (100 uM H2O2); some panels with Sirt1 overexpression or Chk2 silencing; immunoblot detection; protocol as in Fu et al., 2020
[2] = target: p53 (tumor protein p53) (UniProt P04637); test: as above

Row | binding [1] | binding [2] | Substance
1 | binds | – | MDM2 (murine double minute 2 protein) (from UniProt Q00987 1-491)
2 | – | binds | Chk2 (checkpoint kinase 2) (from UniProt O96017 1-543)
